In PubChem BioAssay AID330 (DTP/NCI, 2004):
The list is a part of this screen's results and no random one: it covers a few groups of compounds. Not every dose and run of a compound is shown. T/C is the treated group as % of the vehicle group. For survival time, this PubChem deposit counts one and a half times the control or more as active, and values a quarter to a half above the control carry no call in these data; other NCI protocols may use other cut-offs. Schedules are NCI's codes, read here as Q, the interval in days (D) or hours (H), X, the number of doses. Some T/C values are marked as having no survivor count here; that says nothing about deaths at the dose. Some entries hold several experiments; the results are listed from low to high.

Test system: P388 leukemia ip, CD2F1 mice, survival T/C
Assay: NCI In Vivo Anticancer Drug Screen. Data for tumor model P388 Leukemia (intraperitoneal) in CD2F1 (CDF1) mice
Conditions: T/C endpoint: median survival time, higher T/C = longer survival

CC1=C[C@H]2O[C@@H]3[C@H](O)[C@@H](O)[C@](C)(C2(COC(=O)CCl)CC1)[C@@]31CO1 (stereo partly specified)
T/C (dose: 0.5 mg/kg/injection, schedule: Q01DX009 (ip), vehicle: saline + alcohol): 137 % of control [survivor count not shown] | T/C (dose: 0.5 mg/kg/injection, schedule: Q01DX009 (ip), vehicle: saline with Tween-80): 145 [survivor count not shown] and 155 % of control [survivor count not shown] | T/C (dose: 1.0 mg/kg/injection, schedule: Q01DX009 (ip), vehicle: saline + alcohol): 151 % of control [survivor count not shown] | T/C (dose: 1.0 mg/kg/injection, schedule: Q01DX009 (ip), vehicle: saline with Tween-80): 136 [survivor count not shown] and 155 % of control [survivor count not shown] | T/C (dose: 2.0 mg/kg/injection, schedule: Q01DX009 (ip), vehicle: saline + alcohol): 146 % of control [survivor count not shown] | T/C (dose: 2.0 mg/kg/injection, schedule: Q01DX009 (ip), vehicle: saline with Tween-80): 164 % of control [survivor count not shown] | T/C (dose: 4.0 mg/kg/injection, schedule: Q01DX009 (ip), vehicle: saline + alcohol): 164 % of control [survivor count not shown] | T/C (dose: 4.0 mg/kg/injection, schedule: Q01DX009 (ip), vehicle: saline with Tween-80): 153 % of control [survivor count not shown] | T/C (dose: 8.0 mg/kg/injection, schedule: Q01DX009 (ip), vehicle: saline + alcohol): 198 % of control [survivor count not shown]

CC1CCOC(=O)/C=C/C=C/C(=O)OC2CC3OC4C(Br)C(C)(O)CCC4(COC(=O)C1O)C2(C)C31CO1 (stereo unspecified)
T/C (dose: 0.15 mg/kg/injection, schedule: Q01DX009 (ip), vehicle: saline + alcohol): 105 % of control [survivor count not shown] | T/C (dose: 0.31 mg/kg/injection, schedule: Q01DX009 (ip), vehicle: saline + alcohol): 93 % of control [survivor count not shown] | T/C (dose: 0.62 mg/kg/injection, schedule: Q01DX009 (ip), vehicle: saline + alcohol): 97 % of control [survivor count not shown] | T/C (dose: 1.25 mg/kg/injection, schedule: Q01DX009 (ip), vehicle: saline + alcohol): 121 % of control [survivor count not shown] | T/C (dose: 2.5 mg/kg/injection, schedule: Q01DX009 (ip), vehicle: saline + alcohol): 112 % of control [survivor count not shown] | T/C (dose: 5.0 mg/kg/injection, schedule: Q01DX009 (ip), vehicle: saline + alcohol): 123 % of control [survivor count not shown] | T/C (dose: 10.0 mg/kg/injection, schedule: Q01DX009 (ip), vehicle: saline + alcohol): 133 % of control [survivor count not shown]

CC(=O)OC1(C)CC(=O)OCC23CCC(C)=CC2OC2CC(OC(=O)/C=C/C=C/C(C(C)O)OCC1O)C3(C)C21CO1 (stereo unspecified)
T/C (dose: 5.0 mg/kg/injection, schedule: Q01DX005 (ip), vehicle: saline): 148 % of control [survivor count not shown] | T/C (dose: 10.0 mg/kg/injection, schedule: Q01DX005 (ip), vehicle: saline, evaluated on day 20): 135 % of control [survivor count not shown] | T/C (dose: 20.0 mg/kg/injection, schedule: Q01DX005 (ip), vehicle: saline, evaluated on day 20): 155 % of control [survivor count not shown] | T/C (dose: 20.0 mg/kg/injection, schedule: Q01DX005 (ip), vehicle: saline, evaluated on day 30): 174 % of control [survivor count not shown] | T/C (dose: 40.0 mg/kg/injection, schedule: Q01DX005 (ip), vehicle: saline): 126 % of control [survivor count not shown]
